Measurements: patent US20110039825A1, “LIGANDS OF ALPHA-ADRENOCEPTORS, DOPAMINE, HISTAMINE, IMIDAZOLINE AND SEROTONIN RECEPTORS AND THEIR USE” (Alla Chem, LLC, priority 2007, published 2011)

Tested on: imidazoline receptor I2
Assay: radioligand binding to imidazoline receptor I2 ([3H] Idazoxan)
Set-up: species or system rat
Protocol: Determination of investigated compounds' binding to imidazoline I2 receptor is carried out according to the method described in [Brown C M, MacKinnon A C, McGrath J C, Spedding M and Kilpatrick A T, a2-Adrenoceptor subtypes and imidazoline-like binding in the rat brain. Br J. Pharmacol. 99:803-809, 1990]. […] Idazoxan is used as positive control.

With `Cc1ccc2c(c1)c1c(n2CCc2ccccc2)CCN(C)C1.Cl` [1.1.2(1-2)•HCl, 2,8-dimethyl-5-phenethyl-1,2,3,4-tetrahydro-1H-pyrido[4,3-b]indole hydrochloride] the “nH imidazoline I2” value was 0.804.
